No constants are given. Whether binding was seen depends on the method and setting. For part of these data: Binding seen in cells or lysates may run through a third protein. Some entries that bind do so weakly or less than the wild type. Each block holds one substance with its values, some of them ahead of it.
Tests used:
[1] = biological target: EAAT2, endogenous mouse (mouse (endogenous in hippocampus and primary astrocytes)) (UniProt P43006); experiment: co-IP; mouse hippocampal lysates, precipitated with rabbit anti-EAAT2 or rabbit anti-AMFR antibody, detected with mouse antibodies; reciprocal
[2] = biological target: EAAT2-FLAG (excitatory amino acid transporter 2, FLAG-tagged) (human) (UniProt P43004); experiment: co-IP; HEK293 cells cotransfected with EAAT2-FLAG and AMFR-Myc for 48 hours, CelLytic M lysate, anti-FLAG or anti-c-Myc agarose, 4°C 4 hours, 3 washes with PBS, Western blot; reciprocal
EAAT2 K542E (human) = EAAT2 K542E (human) (UniProt P43004); experiment: native gel or EMSA; native-PAGE (loading buffer with 0.1% SDS, no BME or DTT) and immunoblot of HEK293 cells 48 hours after transfection of WT or mutant EAAT2 with AMFR or empty vector
EAAT2 K542G (human) = EAAT2 K542G (human) (UniProt P43004); experiment: as above
EAAT2 K542R (human) = EAAT2 K542R (human) (UniProt P43004); experiment: as above
[3] = biological target: EAAT2, endogenous human (human (endogenous in hippocampal tissue)) (UniProt P43004); experiment: native gel or EMSA; native-PAGE (loading buffer with 0.1% SDS, no BME or DTT) and immunoblot of lysates of human non-HS and HS hippocampal samples
[4] = biological target: EAAT2, endogenous mouse (mouse (endogenous in hippocampus and primary astrocytes)) (UniProt P43006); experiment: native gel or EMSA; native-PAGE (12% precast gel, loading buffer with 0.1% SDS, no BME or DTT) and immunoblot of lysates and membrane extracts of primary cultured mouse astrocytes; AMFR overexpression or knockdown
[5] = biological target: EAAT2, endogenous mouse (mouse (endogenous in hippocampus and primary astrocytes)) (UniProt P43006); experiment: SDS-PAGE without reducing agents, immunoblot; lysates of primary cultured astrocytes, 2% SDS loading buffer without BME and DTT (Figure 2A), with AAV5-AMFR or control virus; with 20 mM BME and 100 mM DTT the oligomers dissociate
[6] = biological target: EAAT2, endogenous mouse (mouse (endogenous in hippocampus and primary astrocytes)) (UniProt P43006); experiment: native gel or EMSA; native-PAGE (loading buffer with 0.1% SDS, no BME or DTT) and immunoblot of mouse hippocampal lysates; KA-induced SE, AAV5-AMFR OE or KD, APAP, 17AAG
[7] = biological target: AMFR, endogenous mouse (mouse (endogenous in hippocampus)) (UniProt Q9R049); experiment: co-IP; mouse hippocampal lysates, precipitated with rabbit anti-EAAT2 or rabbit anti-AMFR antibody, detected with mouse antibodies; reciprocal
[8] = biological target: EAAT2-FLAG (excitatory amino acid transporter 2, FLAG-tagged) (human) (UniProt P43004); experiment: native gel or EMSA; native-PAGE (loading buffer with 0.1% SDS, no BME or DTT) and immunoblot of HEK293 cells 48 hours after transfection of WT or mutant EAAT2 with AMFR or empty vector
AMFR-Myc = AMFR-Myc (UniProt Q9UKV5); experiment: co-IP; HEK293 cells cotransfected with EAAT2-FLAG and AMFR-Myc for 48 hours, CelLytic M lysate, anti-FLAG or anti-c-Myc agarose, 4°C 4 hours, 3 washes with PBS, Western blot; reciprocal

The chains behind the UniProt entries cited, without tags or fusion partners. Where a name states a change or a piece, a line headed by the entry shows the natural chain unless it says otherwise. A line that says so, or that is headed by a name, gives the form on record, which may keep a tag or linker. Residues count along the entry.
UniProt P43006: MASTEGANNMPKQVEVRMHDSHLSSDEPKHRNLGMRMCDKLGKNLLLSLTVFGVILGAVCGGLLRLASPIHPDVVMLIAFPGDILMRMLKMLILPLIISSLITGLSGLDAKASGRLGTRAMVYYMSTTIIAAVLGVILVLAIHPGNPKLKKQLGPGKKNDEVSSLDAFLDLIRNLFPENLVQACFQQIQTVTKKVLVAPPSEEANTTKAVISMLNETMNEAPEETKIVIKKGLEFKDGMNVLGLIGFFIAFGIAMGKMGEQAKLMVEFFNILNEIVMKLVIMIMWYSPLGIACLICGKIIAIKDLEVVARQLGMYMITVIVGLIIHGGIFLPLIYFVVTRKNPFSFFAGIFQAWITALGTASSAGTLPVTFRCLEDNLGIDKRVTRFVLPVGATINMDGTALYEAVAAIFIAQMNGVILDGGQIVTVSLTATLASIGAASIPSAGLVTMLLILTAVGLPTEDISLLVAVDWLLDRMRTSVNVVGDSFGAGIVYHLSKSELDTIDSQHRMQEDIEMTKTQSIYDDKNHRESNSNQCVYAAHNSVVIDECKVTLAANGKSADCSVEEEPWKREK
EAAT2-FLAG (excitatory amino acid transporter 2, FLAG-tagged) (P43004, residues 10-574): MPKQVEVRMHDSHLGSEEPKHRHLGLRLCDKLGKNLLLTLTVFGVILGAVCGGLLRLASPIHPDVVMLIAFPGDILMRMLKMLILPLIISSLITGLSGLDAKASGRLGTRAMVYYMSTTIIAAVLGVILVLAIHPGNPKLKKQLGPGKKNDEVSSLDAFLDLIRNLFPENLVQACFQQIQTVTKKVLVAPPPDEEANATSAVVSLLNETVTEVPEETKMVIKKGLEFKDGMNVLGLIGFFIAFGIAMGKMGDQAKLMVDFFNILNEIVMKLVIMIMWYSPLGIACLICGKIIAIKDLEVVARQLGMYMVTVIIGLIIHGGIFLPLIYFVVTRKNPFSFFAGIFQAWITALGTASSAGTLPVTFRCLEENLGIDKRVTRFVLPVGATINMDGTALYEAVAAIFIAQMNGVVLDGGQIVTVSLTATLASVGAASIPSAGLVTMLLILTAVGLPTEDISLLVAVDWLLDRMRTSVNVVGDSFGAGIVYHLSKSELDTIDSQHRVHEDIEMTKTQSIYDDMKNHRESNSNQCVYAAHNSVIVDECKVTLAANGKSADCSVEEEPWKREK
EAAT2 K542E (P43004-2, form named): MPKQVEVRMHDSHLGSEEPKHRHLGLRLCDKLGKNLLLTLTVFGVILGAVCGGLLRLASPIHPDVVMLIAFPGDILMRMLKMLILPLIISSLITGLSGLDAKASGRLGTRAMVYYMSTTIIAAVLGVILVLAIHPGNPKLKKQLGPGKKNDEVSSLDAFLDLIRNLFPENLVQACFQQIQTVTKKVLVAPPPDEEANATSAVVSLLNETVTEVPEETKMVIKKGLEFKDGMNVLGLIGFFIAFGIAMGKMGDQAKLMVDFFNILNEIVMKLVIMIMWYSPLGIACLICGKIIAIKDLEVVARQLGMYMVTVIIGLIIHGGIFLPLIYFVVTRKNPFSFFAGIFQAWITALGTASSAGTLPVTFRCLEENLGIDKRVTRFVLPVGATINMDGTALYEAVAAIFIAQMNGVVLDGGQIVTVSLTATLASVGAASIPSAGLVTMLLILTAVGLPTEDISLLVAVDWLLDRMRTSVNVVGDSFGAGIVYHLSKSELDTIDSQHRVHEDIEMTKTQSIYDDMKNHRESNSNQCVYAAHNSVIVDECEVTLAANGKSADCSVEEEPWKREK
EAAT2 K542G (P43004-2, form named): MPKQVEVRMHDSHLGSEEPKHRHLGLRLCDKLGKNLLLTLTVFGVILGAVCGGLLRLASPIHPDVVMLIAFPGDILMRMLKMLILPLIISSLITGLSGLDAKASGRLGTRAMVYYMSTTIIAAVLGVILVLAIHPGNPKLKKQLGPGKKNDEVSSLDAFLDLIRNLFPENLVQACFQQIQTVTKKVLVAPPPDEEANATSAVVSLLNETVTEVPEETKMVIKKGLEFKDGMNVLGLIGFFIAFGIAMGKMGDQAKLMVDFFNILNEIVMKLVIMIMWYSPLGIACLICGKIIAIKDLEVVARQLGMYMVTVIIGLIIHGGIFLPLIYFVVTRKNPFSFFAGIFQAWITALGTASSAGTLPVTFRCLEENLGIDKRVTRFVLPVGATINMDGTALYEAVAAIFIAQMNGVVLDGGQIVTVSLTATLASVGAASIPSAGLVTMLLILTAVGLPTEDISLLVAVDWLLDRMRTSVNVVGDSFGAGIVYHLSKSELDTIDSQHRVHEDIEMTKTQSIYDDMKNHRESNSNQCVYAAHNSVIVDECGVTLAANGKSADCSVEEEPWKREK
EAAT2 K542R (P43004-2, form named): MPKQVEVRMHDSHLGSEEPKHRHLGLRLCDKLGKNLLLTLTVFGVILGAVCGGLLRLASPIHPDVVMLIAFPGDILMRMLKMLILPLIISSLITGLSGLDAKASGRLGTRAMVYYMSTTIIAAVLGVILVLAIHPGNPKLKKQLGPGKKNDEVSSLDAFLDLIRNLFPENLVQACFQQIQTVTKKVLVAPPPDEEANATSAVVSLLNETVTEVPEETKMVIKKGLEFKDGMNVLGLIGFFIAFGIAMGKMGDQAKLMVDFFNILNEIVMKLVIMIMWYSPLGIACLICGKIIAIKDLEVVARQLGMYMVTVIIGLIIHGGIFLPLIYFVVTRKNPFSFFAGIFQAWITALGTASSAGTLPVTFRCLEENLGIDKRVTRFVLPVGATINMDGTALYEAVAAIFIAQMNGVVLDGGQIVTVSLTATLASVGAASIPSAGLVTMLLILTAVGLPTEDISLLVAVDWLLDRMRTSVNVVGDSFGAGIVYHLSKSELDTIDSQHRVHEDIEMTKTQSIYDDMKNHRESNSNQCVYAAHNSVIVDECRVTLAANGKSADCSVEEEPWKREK
UniProt Q9R049: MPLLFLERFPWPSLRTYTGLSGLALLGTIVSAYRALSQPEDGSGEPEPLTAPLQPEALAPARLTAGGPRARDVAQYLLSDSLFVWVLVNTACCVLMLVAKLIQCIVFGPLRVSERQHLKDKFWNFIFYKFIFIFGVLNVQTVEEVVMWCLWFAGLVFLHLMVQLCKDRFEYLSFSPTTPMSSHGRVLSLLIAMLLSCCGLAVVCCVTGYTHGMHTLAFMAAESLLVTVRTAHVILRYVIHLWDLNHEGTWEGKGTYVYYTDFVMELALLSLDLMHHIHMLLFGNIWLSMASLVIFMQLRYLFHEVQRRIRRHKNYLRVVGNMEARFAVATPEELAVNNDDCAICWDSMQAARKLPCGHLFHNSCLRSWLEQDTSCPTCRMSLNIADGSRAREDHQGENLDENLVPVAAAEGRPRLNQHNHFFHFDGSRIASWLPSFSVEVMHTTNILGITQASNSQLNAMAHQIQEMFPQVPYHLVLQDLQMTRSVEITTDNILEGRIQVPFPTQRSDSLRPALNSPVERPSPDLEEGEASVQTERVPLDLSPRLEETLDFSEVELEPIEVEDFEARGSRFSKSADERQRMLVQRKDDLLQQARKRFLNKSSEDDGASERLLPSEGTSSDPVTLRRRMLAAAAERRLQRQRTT
UniProt Q9UKV5: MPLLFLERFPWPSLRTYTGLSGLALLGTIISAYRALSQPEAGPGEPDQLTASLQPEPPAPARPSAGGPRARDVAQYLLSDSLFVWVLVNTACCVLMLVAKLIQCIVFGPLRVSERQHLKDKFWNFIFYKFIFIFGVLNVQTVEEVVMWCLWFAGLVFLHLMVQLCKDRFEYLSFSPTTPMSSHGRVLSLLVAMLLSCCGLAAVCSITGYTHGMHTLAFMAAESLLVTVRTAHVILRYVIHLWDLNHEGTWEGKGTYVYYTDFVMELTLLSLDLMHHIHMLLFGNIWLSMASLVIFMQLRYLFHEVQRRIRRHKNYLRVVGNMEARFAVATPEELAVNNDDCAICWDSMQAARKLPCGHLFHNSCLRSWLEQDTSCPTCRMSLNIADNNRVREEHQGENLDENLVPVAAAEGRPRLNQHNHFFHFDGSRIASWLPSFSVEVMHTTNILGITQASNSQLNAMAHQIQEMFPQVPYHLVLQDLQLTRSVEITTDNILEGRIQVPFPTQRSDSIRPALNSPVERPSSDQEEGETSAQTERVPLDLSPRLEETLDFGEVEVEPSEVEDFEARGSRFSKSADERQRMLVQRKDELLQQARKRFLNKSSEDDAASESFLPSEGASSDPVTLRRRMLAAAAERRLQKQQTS

Substance: EAAT2 K542G (from UniProt P43004-2 1-565)
- binding (EAAT2 K542G (human)): binds

Substance: EAAT2 K542R (from UniProt P43004-2 1-565)
- binding (EAAT2 K542R (human)): binds

Substance: EAAT2, endogenous mouse (from UniProt P43006 1-572)
- binding [4]: binds
- binding [5]: binds
- binding [6]: binds
- binding [7]: binds

The next lines start with the values.

- binding [1]: binds
Substance: AMFR, endogenous mouse (from UniProt Q9R049 1-643) (enzyme)

- binding [2]: binds
Substance: AMFR-Myc (from UniProt Q9UKV5 1-643) (enzyme)

- binding (EAAT2 K542E (human)): binds
Substance: EAAT2 K542E (from UniProt P43004-2 1-565)

- binding [3]: binds
Substance: EAAT2, endogenous human (from UniProt P43004-2 1-565)

- binding [8]: binds
- binding (AMFR-Myc): binds
Substance: EAAT2-FLAG (excitatory amino acid transporter 2, FLAG-tagged) (from UniProt P43004-2 1-565)

— paper PMC9462477
